Earlier results as cited in patent US7345033B2, “Carbamoyl-and thiocarbamoyl-phosphonates and pharmaceutical compositions comprising them” (Yissum Research Development Company of the Hebrew …, priority 2003, dated 2008).
At least one structure is not confirmed: it was looked up by name or label, or the drawing left a doubt.

Test system: restenosis
Details: same rabbit model; cited from earlier work

CNC(=O)[C@H](Cc1ccccc1)NC(=O)[C@H](CC(C)C)[C@H](CSc1cccs1)C(=O)NO [Batimastat]
restenosis treatment by known MMP inhibitors in same model: failed
